# Assay results taken from PMC5539093, “Functional Characterization of Four Putative δ^1-Pyrroline-5-Carboxylate Reductases from Bacillus subtilis” (Frontiers in Microbiology, 2017).
# These are yes or no findings as the source states them, for the method shown.
# B1: ComER, putative δ1-pyrroline-5-carboxylate (P5C) reductase from Bacillus subtilis (enzyme, UniProt P39696 1-273)
# chain: MKIGFIGTGNMGTILIESFIESKAADPSNMTITNRTIEKALHIKNRYNSINVTESLEKLVSENEMIFICVKPLDIYPLLARALPYLRKDHILISITSPVQTEQLEQYVPCQVARVIPSITNRALAGVSLVTFGTSCGESAKAKINELMQHISHPLQIESDITRVASDIVSCGPAFMSYLIQRFIDAAVSETSVSKQDAILMCKEMLVGMGKLLETELYTLPALQEKVCVKGGVTGEGIKALESGVQDMFHRVFQNTHMKYEEDISAVKKQFHV
# Target: ComER, putative δ1-pyrroline-5-carboxylate (P5C) reductase from Bacillus subtilis (Bacillus subtilis strain 168) (UniProt P39696)
# Experiment: small-angle X-ray scattering (SAXS) in line with SEC; each native protein at 5 mg mL^-1 loaded onto a Superdex 200 column in 20 mM HEPES pH 8.0, 150 mM NaCl, 2 mM TCEP, routed into the flow cell; oligomeric state from mass, Rg, Dmax and ab initio envelope; both purified
binder,measurement,value
B1,binding,no binding (tested: 5 mg mL^-1 loaded onto the column)
